Test results: PubChem BioAssay AID330 (DTP/NCI, 2004)
The list is a part of this screen's results and no random one: it gathers tests that were run many times, whatever their T/C, doses with no T/C, and many T/C values between a quarter and a half above the control. Further doses and runs are listed elsewhere. T/C is the treated group as % of the vehicle group. Some doses have a count of surviving animals in place of a T/C: the source holds a T/C of zero for them, seemingly a mark for toxic or unscored doses. Some survivor counts are full or nearly so, which does not show that the dose was tolerated: the source hardly ever lists a survival T/C far under the control, and the zero likely stands for such cases as well. Survivors were counted at the toxicity check, usually on the fifth day, unless a day is given; later deaths do not show. Schedules are NCI's codes, read here as Q, the interval in days (D) or hours (H), X, the number of doses. Some entries were tested several times; the values are given in rising order. Some molecules as drawn cover several salts, stereoisomers or complexes of the source; a dose is that of the sample tested. Where survival is the endpoint, the PubChem record calls one and a half times the control and up active, and a quarter to a half above the control has no call in these data; cut-offs in other NCI protocols can differ.

Test system: P388 leukemia ip, CD2F1 mice, survival T/C
Assay: NCI In Vivo Anticancer Drug Screen. Data for tumor model P388 Leukemia (intraperitoneal) in CD2F1 (CDF1) mice
Conditions: T/C endpoint: median survival time, higher T/C = longer survival
[1] = dose: 50.0 mg/kg/injection, schedule: Q01DX005 (ip), vehicle: Klucel (hydroxypropylcellulose) (HPC)
[2] = dose: 100.0 mg/kg/injection, schedule: Q01DX005 (ip), vehicle: Klucel (hydroxypropylcellulose) (HPC)
[3] = dose: 200.0 mg/kg/injection, schedule: Q01DX005 (ip), vehicle: Klucel (hydroxypropylcellulose) (HPC)
[4] = dose: 240.0 mg/kg/injection, schedule: Q01DX005 (ip), vehicle: saline with Tween-80
[5] = dose: 200.0 mg/kg/injection, schedule: Q01DX009 (ip), vehicle: saline
[6] = dose: 25.0 mg/kg/injection, schedule: Q01DX005 (ip), vehicle: Klucel (hydroxypropylcellulose) (HPC)
[7] = dose: 200.0 mg/kg/injection, schedule: Q04DX002 (ip), vehicle: saline with Tween-80
[8] = dose: 50.0 mg/kg/injection, schedule: Q01DX009 (ip), vehicle: saline
[9] = dose: 200.0 mg/kg/injection, schedule: Q01DX005 (ip), vehicle: saline with Tween-80

Structure (SMILES): COc1ccc([N+](=O)[O-])c(C=O)c1OS(=O)(=O)c1ccc(C)c([N+](=O)[O-])c1
- survivor count (dose: 50.0 mg/kg/injection, schedule: Q01DX009 (ip), vehicle: distilled water + Tween-80): 6 of 6

Structure (SMILES): CN(C)C1=C(Cl)C(=O)c2[nH]cnc2C1=O
- survivor count [1]: 5 of 5
- survivor count [2]: 0 of 6
- survivor count [3]: 0 of 6

Structure (SMILES): Cc1cc2nc(CC(=O)c3ccc4ccccc4c3)c(=O)[nH]c2cc1C
- survivor count (dose: 120.0 mg/kg/injection, schedule: Q01DX005 (ip), vehicle: saline with Tween-80): 6 of 6
- survivor count [4]: 4 of 6

Structure (SMILES): CNNCc1ccc(C(=O)NC(N)=O)cc1
- T/C (dose: 88.0 mg/kg/injection, schedule: Q01DX009 (ip), vehicle: saline): 125 % of control
- T/C (dose: 133.0 mg/kg/injection, schedule: Q01DX009 (ip), vehicle: saline): 130 % of control
- T/C [5]: 140 % of control

Structure (SMILES): CN=C(NC)c1ccc(NC(=O)c2ccc(C(=O)Nc3ccc(C(=NC)NC)cc3)c([N+](=O)[O-])c2)cc1
- T/C (dose: 6.25 mg/kg/injection, schedule: Q01DX005 (ip), vehicle: Klucel (hydroxypropylcellulose) (HPC)): 127 and 140 % of control
- survivor count (dose: 12.5 mg/kg/injection, schedule: Q01DX005 (ip), vehicle: Klucel (hydroxypropylcellulose) (HPC)): 1 of 6 and 2 of 6
- survivor count [6]: 0 of 6
- survivor count [1]: 0 of 6
- survivor count [2]: 0 of 6
- survivor count [3]: 0 of 6

Structure (SMILES): CNCCC(Oc1ccccc1OC)c1ccccc1 (stereo unspecified)
- survivor count (dose: 100.0 mg/kg/injection, schedule: Q04DX002 (ip), vehicle: saline with Tween-80): 0 of 6
- survivor count (dose: 100.0 mg/kg/injection, schedule: Q04DX002 (ip), vehicle: saline): 1 of 6 and 2 of 6
- survivor count [7]: 0 of 6
- survivor count (dose: 200.0 mg/kg/injection, schedule: Q04DX002 (ip), vehicle: saline): 0 of 6
- survivor count (dose: 400.0 mg/kg/injection, schedule: Q04DX002 (ip), vehicle: saline): 0 of 6

Structure (SMILES): CC(=O)Nc1cc2cc(NC=C(C#N)C#N)ccc2oc1=O
- survivor count (dose: 240.0 mg/kg/injection, schedule: Q01DX005 (ip), vehicle: Klucel + Tween-80): 6 of 6

Structure (SMILES): Cc1cc(N/N=C/c2ccccn2)c2cc3c(cc2n1)OCO3
- survivor count [2]: 5 of 6
- survivor count [3]: 1 of 6

Structure (SMILES): CCC1(O)CC(OC2CC(N(C)C)C(OC3CC(O)C(OC4CCC(=O)C(C)O4)C(C)O3)C(C)O2)c2c(cc3c(c2O)C(=O)c2c(O)ccc(O)c2C3=O)C1C(=O)OC (stereo unspecified)
- T/C (dose: 0.78 mg/kg/injection, schedule: Q01DX009 (ip), vehicle: saline with Tween-80): 135 % of control
- survivor count (dose: 3.75 mg/kg/injection, schedule: Q01DX009 (ip), vehicle: saline with Tween-80): 6 of 6
- survivor count (dose: 7.5 mg/kg/injection, schedule: Q01DX009 (ip), vehicle: saline with Tween-80): 2 of 6
- survivor count (dose: 15.0 mg/kg/injection, schedule: Q01DX009 (ip), vehicle: saline with Tween-80): 0 of 6

Structure (SMILES): CN1CCc2[nH]c3ccccc3c2C1
- survivor count (dose: 400.0 mg/kg/injection, schedule: Q04DX002 (ip), vehicle: Klucel (hydroxypropylcellulose) (HPC)): 0 of 6

Structure (SMILES): CC1=C(O)C(=O)C(c2c(C)cc(C)c(Br)c2C)=C(O)C1=O
- T/C [6]: 125 % of control
- T/C [1]: 125 % of control
- survivor count [2]: 0 of 6

Structure (SMILES): Cc1c(N=Nc2ccc(Br)cc2)c(-c2ccccc2)nn1C(N)=S
- survivor count [3]: 5 of 5

Structure (SMILES): CNC(=O)CCl
- survivor count (dose: 400.0 mg/kg/injection, schedule: Q04DX003 (ip), vehicle: saline): 0 of 6

Structure (SMILES): c1ccc(N=P(c2ccccc2)(c2ccccc2)c2ccccc2)cc1
- survivor count (dose: 200.0 mg/kg/injection, schedule: Q01DX009 (ip), vehicle: saline with Tween-80): 0 of 6

Structure (SMILES): Ic1ncnc2c1ncn2C1CCCCO1 (stereo unspecified)
- survivor count [8]: 6 of 6

Structure (SMILES): O=C(O)c1cnc2c(C(F)(F)F)cccc2c1Nc1ccc2c(c1)OCO2
- survivor count (dose: 60.0 mg/kg/injection, schedule: Q01DX005 (ip), vehicle: Klucel (hydroxypropylcellulose) (HPC)): 6 of 6

Structure (SMILES): CC(=O)c1c(OCC(O)CN2CCN(C)CC2)cccc1OCC(O)CN1CCN(C)CC1 (stereo unspecified)
- survivor count (dose: 50.0 mg/kg/injection, schedule: Q01DX005 (ip), vehicle: saline): 0 of 6
- survivor count (dose: 100.0 mg/kg/injection, schedule: Q01DX005 (ip), vehicle: saline): 0 of 6
- survivor count (dose: 200.0 mg/kg/injection, schedule: Q01DX005 (ip), vehicle: saline): 0 of 6

Structure (SMILES): CCC(C)Sc1nc2ccc(NC(=O)/C=C/C(=O)O)cc2s1 (stereo unspecified)
- survivor count (dose: 400.0 mg/kg/injection, schedule: Q04DX003 (ip), vehicle: Klucel (hydroxypropylcellulose) (HPC)): 0 of 6

Structure (SMILES): C[C@@]1(CO)[C@H](O)CC[C@@]2(C)[C@H]1CC[C@H]1C[C@@H]3C[C@@]12CC[C@@]3(O)COC(=O)CN
- T/C (dose: 20.0 mg/kg/injection, schedule: Q03HX027 (ip), vehicle: saline + alcohol): 130 % of control
- T/C [8]: 131 % of control
- T/C (dose: 60.0 mg/kg/injection, schedule: Q01DX009 (ip), vehicle: saline + alcohol): 127 % of control
- survivor count (dose: 80.0 mg/kg/injection, schedule: Q03HX027 (ip), vehicle: saline + alcohol): 2 of 6
- T/C (dose: 100.0 mg/kg/injection, schedule: Q01DX009 (ip), vehicle: saline): 140 % of control
- T/C [5]: 134 and 135 % of control
- survivor count (dose: 240.0 mg/kg/injection, schedule: Q01DX009 (ip), vehicle: saline + alcohol): 0 of 6

Structure (SMILES): CN1CCC/C1=C1/Cc2ccccc2C1=O
- T/C [3]: 125 % of control

Structure (SMILES): CC[C@H]1C[C@H]2CN(CCc3c([nH]c4ccccc34)[C@@](C(=O)OC)(c3cc4c(cc3OC)N(C=O)[C@H]3[C@@](O)(C(=O)OC)[C@H](OC(C)=O)[C@]5(CC)CCCN6CC[C@]43[C@@H]65)C2)C1
- T/C (dose: 0.5 mg/kg/injection, schedule: Q01DX001 (ip), vehicle: water): 126 % of control
- T/C (dose: 1.0 mg/kg/injection, schedule: Q01DX001 (ip), vehicle: water): 145 and 147 % of control
- survivor count (dose: 8.0 mg/kg/injection, schedule: Q01DX001 (ip), vehicle: water): 2 of 6 and 4 of 6
- survivor count (dose: 16.0 mg/kg/injection, schedule: Q01DX001 (ip), vehicle: water): 0 of 6

Structure (SMILES): CC(=O)C(=Cc1ccc(C=C(C(C)=O)C(C)=O)cc1)C(C)=O
- survivor count [4]: 3 of 6

Structure (SMILES): CC1(C)C=Cc2c(ccc3c(=O)c(-c4ccc5c(c4)OCO5)coc23)O1
- survivor count [7]: 6 of 6
- survivor count (dose: 400.0 mg/kg/injection, schedule: Q04DX002 (ip), vehicle: saline with Tween-80): 6 of 6

Structure (SMILES): CN1C(c2cccnc2)=NCC12CCCC2
- survivor count (dose: 60.0 mg/kg/injection, schedule: Q01DX005 (ip), vehicle: saline): 1 of 6
- survivor count (dose: 120.0 mg/kg/injection, schedule: Q01DX005 (ip), vehicle: saline): 0 of 6
- survivor count (dose: 240.0 mg/kg/injection, schedule: Q01DX005 (ip), vehicle: saline): 0 of 6

Structure (SMILES): CCOC(=O)CN=C(c1ccccc1)c1ccccc1
- survivor count [8]: 6 of 6
- survivor count [5]: 6 of 6

Structure (SMILES): CCOC(=O)c1ccc(=O)n2c1[nH]c1ccccc12
- survivor count (dose: 100.0 mg/kg/injection, schedule: Q01DX005 (ip), vehicle: saline with Tween-80): 5 of 5
- survivor count [9]: 5 of 5

Structure (SMILES): CC(C)(C)CC(C)(C)c1ccc(OCCO)cc1
- survivor count (dose: 200.0 mg/kg/injection, schedule: Q04DX003 (ip), vehicle: saline): 4 of 6

Structure (SMILES): COc1cc(/C=N/NC(=O)CN(C)C)cc(OC)c1N(CCCl)CCCl
- T/C (dose: 12.5 mg/kg/injection, schedule: Q01DX009 (ip), vehicle: Klucel (hydroxypropylcellulose) (HPC)): 136 % of control
- T/C (dose: 25.0 mg/kg/injection, schedule: Q01DX009 (ip), vehicle: Klucel (hydroxypropylcellulose) (HPC)): 149 % of control

Structure (SMILES): CC1=CCC2CN(CCN(C)C)CC2C1 (stereo unspecified)
- survivor count [9]: 1 of 6
